Assay results: patent US20220331309A1, “PHARMACEUTICAL COMPOSITION FOR TREATING INSOMNIA” (priority 2019, published 2022)

Assay: Single dose administration test of lemborexant in healthy adults (Test Example 3)
Type: in vivo, human
Procedure: In 64 cases of healthy adults under a feed-deprived condition, the pharmacokinetics of lemborexant administered with single doses of 1, 2.5, 5, 10, 25, 50, 100, and 200 mg thereof was examined by a randomized, double-blinded, placebo-controlled, multi-stage single administration test. In each group, lemborexant was administered to six cases, and the placebo was administered to two cases.
The transition of the mean lemborexant concentration in the plasma when single doses of 1, […], 10, 25, 50, 100, and 200 mg lemborexant were administered to the healthy adults is shown in FIG. 1.

Cc1ncc(OC[C@@]2(c3cccc(F)c3)C[C@H]2C(=O)Nc2ccc(F)cn2)c(C)n1 [lemborexant, (1R,2S)-2-(((2,4-dimethylpyrimidin-5-yl)oxy)methyl)-2-(3-fluorophenyl)-N-(5-fluoropyridin-2-yl)cyclopropanecarboxamide]
correlation between plasma concentration and pharmacodynamic evaluations (DSST, PVT, KSS) (dose of 10 mg or more): a correlation was found
correlation between plasma concentration and pharmacodynamic evaluations (DSST, PVT, KSS) (dose up to 5 mg): the correlation was barely found
